The target in one experiment is GST-RhoA (UniProt P61586). Description: pull-down; GST-Rac1 or GST-RhoA purified from E. coli as bait; FLAG-PLCE1 expressed in HEK293 cells; only the target purified.
For experiment [1], the target named is FLAG-tagged PLCE1 transfected into podocytes (human) (UniProt Q9P212). In words: co-IP; FLAG-tagged PLCE1 and Myc-tagged NCKs transfected into podocytes; lysates immunoprecipitated with anti-FLAG agarose beads.
In experiment [2] the target is RhoA in cultured podocytes (UniProt P61586). Description: co-IP; coimmunoprecipitation in cultured podocytes in the background of PLCE1 overexpression; which partner was precipitated is not stated.
The target in experiment [3] is Cdc42 in cultured podocytes (UniProt P60953). The description is as above.

Amino acid sequences for entries named in this document (tags omitted).
UniProt P61586: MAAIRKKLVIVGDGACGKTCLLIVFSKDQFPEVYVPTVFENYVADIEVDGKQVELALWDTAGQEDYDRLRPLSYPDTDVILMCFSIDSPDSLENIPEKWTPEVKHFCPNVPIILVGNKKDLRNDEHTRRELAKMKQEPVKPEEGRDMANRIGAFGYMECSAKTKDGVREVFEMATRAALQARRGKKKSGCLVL
UniProt Q9P212: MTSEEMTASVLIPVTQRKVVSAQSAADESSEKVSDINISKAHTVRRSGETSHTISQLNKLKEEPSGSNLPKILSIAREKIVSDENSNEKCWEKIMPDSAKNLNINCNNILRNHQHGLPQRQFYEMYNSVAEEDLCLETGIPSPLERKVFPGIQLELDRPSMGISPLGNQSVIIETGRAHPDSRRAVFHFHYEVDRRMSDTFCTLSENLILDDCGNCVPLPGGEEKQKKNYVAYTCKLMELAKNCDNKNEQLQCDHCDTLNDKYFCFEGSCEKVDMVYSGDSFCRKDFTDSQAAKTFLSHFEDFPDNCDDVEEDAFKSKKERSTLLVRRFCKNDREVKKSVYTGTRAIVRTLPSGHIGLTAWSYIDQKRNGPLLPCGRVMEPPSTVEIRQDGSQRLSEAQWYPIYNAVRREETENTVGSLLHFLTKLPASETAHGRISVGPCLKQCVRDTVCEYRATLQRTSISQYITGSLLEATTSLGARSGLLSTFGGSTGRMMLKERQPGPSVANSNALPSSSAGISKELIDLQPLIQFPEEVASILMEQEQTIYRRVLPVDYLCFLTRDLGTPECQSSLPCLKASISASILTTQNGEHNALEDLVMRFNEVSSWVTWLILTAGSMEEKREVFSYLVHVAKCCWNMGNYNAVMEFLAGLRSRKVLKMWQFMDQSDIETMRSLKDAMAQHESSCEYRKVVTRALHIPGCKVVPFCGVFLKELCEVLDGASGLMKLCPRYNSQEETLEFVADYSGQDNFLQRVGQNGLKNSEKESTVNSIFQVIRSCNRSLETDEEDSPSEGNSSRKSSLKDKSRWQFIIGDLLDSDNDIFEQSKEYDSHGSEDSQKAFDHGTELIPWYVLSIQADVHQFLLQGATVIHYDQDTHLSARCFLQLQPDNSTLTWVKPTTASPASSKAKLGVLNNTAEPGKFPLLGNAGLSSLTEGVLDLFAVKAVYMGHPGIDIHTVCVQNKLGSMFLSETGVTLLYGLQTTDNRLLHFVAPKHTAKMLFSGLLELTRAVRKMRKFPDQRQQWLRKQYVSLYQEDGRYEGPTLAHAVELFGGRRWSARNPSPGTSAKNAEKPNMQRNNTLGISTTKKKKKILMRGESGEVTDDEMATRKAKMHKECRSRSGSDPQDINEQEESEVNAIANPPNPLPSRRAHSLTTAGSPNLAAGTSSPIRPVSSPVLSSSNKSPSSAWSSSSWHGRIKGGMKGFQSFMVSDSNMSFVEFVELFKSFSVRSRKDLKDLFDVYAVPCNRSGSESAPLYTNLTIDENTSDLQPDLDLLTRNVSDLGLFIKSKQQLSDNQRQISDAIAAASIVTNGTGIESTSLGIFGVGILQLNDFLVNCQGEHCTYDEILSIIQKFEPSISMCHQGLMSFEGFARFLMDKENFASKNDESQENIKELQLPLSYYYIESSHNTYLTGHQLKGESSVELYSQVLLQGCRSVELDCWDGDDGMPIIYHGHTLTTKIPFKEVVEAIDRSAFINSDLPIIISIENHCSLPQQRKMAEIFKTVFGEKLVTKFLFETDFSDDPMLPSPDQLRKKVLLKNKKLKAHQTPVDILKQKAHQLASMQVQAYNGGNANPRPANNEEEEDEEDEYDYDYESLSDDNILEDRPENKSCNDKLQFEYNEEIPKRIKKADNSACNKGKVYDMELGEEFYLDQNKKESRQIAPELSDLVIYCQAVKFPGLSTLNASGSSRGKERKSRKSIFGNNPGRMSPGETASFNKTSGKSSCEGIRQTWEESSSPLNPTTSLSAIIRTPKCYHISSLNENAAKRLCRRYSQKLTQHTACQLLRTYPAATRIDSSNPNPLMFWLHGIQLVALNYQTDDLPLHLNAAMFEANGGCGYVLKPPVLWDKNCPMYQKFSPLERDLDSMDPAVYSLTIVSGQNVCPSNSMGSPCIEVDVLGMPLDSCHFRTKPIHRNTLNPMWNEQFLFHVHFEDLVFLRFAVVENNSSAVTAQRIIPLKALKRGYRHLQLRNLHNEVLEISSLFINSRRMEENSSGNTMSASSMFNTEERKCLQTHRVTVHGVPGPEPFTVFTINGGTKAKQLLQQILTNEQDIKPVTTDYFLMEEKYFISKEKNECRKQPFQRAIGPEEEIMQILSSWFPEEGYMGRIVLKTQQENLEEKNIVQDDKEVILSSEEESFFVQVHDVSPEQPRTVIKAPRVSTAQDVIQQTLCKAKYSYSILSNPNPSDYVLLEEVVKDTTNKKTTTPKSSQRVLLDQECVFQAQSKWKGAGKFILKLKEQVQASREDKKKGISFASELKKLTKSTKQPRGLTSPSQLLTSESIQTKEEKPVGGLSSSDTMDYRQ
UniProt P60953: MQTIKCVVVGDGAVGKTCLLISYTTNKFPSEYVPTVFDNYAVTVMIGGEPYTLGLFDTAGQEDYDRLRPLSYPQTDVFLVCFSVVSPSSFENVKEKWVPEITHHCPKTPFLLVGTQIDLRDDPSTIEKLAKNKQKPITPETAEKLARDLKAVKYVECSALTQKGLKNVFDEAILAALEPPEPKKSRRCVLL
UniProt O43639: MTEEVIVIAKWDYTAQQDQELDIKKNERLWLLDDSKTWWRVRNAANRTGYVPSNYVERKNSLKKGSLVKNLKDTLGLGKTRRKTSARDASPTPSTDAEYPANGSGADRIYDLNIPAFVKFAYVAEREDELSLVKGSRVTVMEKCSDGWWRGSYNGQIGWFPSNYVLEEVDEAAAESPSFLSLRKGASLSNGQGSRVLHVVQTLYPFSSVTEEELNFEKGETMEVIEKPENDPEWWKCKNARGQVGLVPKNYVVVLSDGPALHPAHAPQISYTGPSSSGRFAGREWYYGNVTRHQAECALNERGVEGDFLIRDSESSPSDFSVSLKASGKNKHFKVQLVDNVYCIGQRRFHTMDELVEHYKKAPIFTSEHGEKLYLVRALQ

In article PMC7210307 one finds binding data, which are given here for 3 substances.

Results are given in words; binding and its absence hold for the method and conditions named. Binding seen in cells or lysates may run through a third protein. Some entries that bind do so weakly or less than the wild type.

On to “FLAG-PLCE1 expressed in HEK293 cells (from UniProt Q9P212 1-2302) (enzyme)”, for which, in the experiment with GST-RhoA, the binding entry is listed as “binds”.
For the substance “Myc-tagged NCK2 (from UniProt O43639 1-380)”, the binding result in experiment [1] is given as “binds”.
With “PLCE1 (phospholipase C epsilon 1), overexpressed in cultured podocytes (from UniProt Q9P212 1-2302) (enzyme)”, the binding result in experiment [2] is reported as “binds”; in experiment [3], “no binding”.
